Reference: the supplement of paper PMC12578635
± gives the standard deviation of the averaged measurements. The list shows a part of the results. Repeats are few or missing, and single values can be far off.

system: RAW 264.7 macrophages infected with S. aureus JE2-lux; test: host macrophage viability (CellTiter-Fluor) relative to DMSO vehicle; higher = more viable host cells; conditions: 10 µM; treatment time 4 h; gentamicin 50 µg/ml

Structure (SMILES) | host macrophage viability [%]
CC(=O)N1c2ccc(NC(=O)CSc3nccc4ccccc34)cc2CC1C (stereo not drawn) | 111
Cc1nc(-c2cccs2)c(CC(=O)NCc2ccc(Cl)cc2)s1 | 117
Nc1nc(SCc2ccc3c(c2)OCO3)ns1 | 105
COc1cc(Cn2nc3n(C)c4ccccc4n3c2=O)cc(OC)c1OC | 124
COc1ccccc1OCCN(C)C(=O)Cn1cnc2sc(C)cc2c1=O | 106
CC(Oc1cc2oc(=O)c3c(c2cc1Cl)CCC3)C(=O)O (stereo not drawn) | 104
CCn1nnc2cc(-c3noc(C4CC(=O)N(c5ccccc5)C4)n3)ccc21 (stereo not drawn) | 113
Cn1ncc2c(NCc3ccc(F)cc3)nc(N3CCOCC3)nc21 | 109
COCCn1/c(=N/C(=O)c2cc3ccccc3oc2=O)sc2cc(NC(C)=O)ccc21 | 127
CCOC(=O)CC1C(=O)NCCN1Cc1ccc(OC)c(OC)c1 (stereo not drawn) | 96.4
Cc1c(-c2ccccc2)n[nH]c1C(=O)Nc1ccc(Oc2cccnc2)cc1 | 76.4
Cc1nnc2ccc(C(=O)NCc3ccc(F)cc3)cn12 | 121
N#CC1=C(N)OC2=C(C(=O)CCC2)C1c1ccc(-c2ccc(Br)cc2)o1 (stereo not drawn) | 100
Cc1sc2nc(C)n3c(=O)n(Cn4nnc5ccccc54)nc3c2c1C | 95.6
O=C(NNc1nc2c(F)cc(F)cc2s1)c1ccc(F)cc1 | 117 ± 13
CCC(Sc1nncn1C)C(=O)Nc1nnc(-c2ccc(OC)cc2OC)s1 (stereo not drawn) | 116 ± 11
O=C(NC1CCN(Cc2cccc(F)c2)CC1)c1cnn(-c2ccc(F)cc2)c1 | 104
Cc1nc(SCC(=O)NCc2ccco2)c2c3c(sc2n1)CCCC3 | 119 ± 18
CC(c1ccccc1)n1cnc2c(cnc3nc4ccccc4n32)c1=O (stereo not drawn) | 139
CCCCc1ccc(-n2c(C)c(C)n3c4c(=O)[nH]c(=O)n(C)c4nc23)cc1 | 105
Cc1nc2c(C)cccn2c(=O)c1NC(=O)COc1ccc2ccccc2c1 | 132
Cc1ccc(NC(=O)CC2SC(=N)NC2=O)cc1 (stereo not drawn) | 106
O=C(Nc1nnc(-c2ccncc2)o1)c1ccccc1I | 123

Structure (SMILES) | host macrophage viability [%]
COc1ccccc1Cn1cc(C(=O)c2ccccc2)c(=O)c2cc3c(cc21)OCO3 | 117
O=C(COc1ccc(Br)cc1)N/N=C/c1ccco1 | 130
CCOc1ccc2cc(C#N)c(SCC(=O)Nc3c[nH]c(=O)[nH]c3=O)nc2c1 | 116
COc1ccc(C(=O)N(Cc2cccnc2)c2nc3c(C)cc(Cl)cc3s2)cc1OC | 94.4
O=c1[nH]cc(S(=O)(=O)N2CCCc3ccccc32)c(=O)[nH]1 | 109
CCn1c(C)cc2cc(NC(=O)COc3ncnc4ccccc34)ccc21 | 114
COc1cccc2s/c(=N/C(=S)NC(=O)c3ccc(C)cc3)n(C)c12 | 112 ± 4.4
O=C(NCc1cccs1)c1ccc(S(=O)(=O)c2ccccc2)nc1 | 117
COc1ccc2cc(CCNC(=O)c3ccc(OC)c(OC)c3)c(=O)[nH]c2c1 | 130
CCOC(=O)c1c(NC(=O)CSc2nc(N)cc(=O)[nH]2)sc2c1CCC2 | 109
CN(c1ccccc1)N1C(=O)/C(=C2/C(=O)Nc3ccc(Br)cc32)SC1=S | 105
Clc1ccc(Cl)c2sc(N3CCCC3)nc12 | 109 ± 5.5
C=CCn1c(CSc2nc(N)cc(N)n2)n[nH]c1=S | 108
Cc1ccnc(SCc2cc(=O)c(OC(=O)c3ccc(S(=O)(=O)N4CCCC4)cc3)co2)n1 | 118
CCOc1cc2c(cc1OCC)C(C)N(C(=O)c1ccc3nc(C)[nH]c3c1)CC2 (stereo not drawn) | 136
CCCCN(Cc1ccccc1)c1ncnc2[nH]cnc12 | 113
Cc1cc2ccccc2n2c(=O)n(CC(C)NC(=O)c3ccnn3C)nc12 (stereo not drawn) | 117
CCOC(=O)CC(NC(=O)Nc1c(-c2ccncc2)[nH]c2ccc(F)cc12)c1ccccc1 (stereo not drawn) | 139
O=C(COc1cccc2ccc(N3CCN(c4ccccc4)CC3)nc12)Nc1cccc(F)c1 | 135
CCCCOc1ccccc1C1CC(=O)Nc2c1c(C)nn2-c1nc2ccccc2s1 (stereo not drawn) | 105
COc1cccc(NC(=O)c2cc3c(=O)n4ccccc4nc3n(CC(C)C)c2=N)c1 | 134
COc1ccccc1OCC(=O)Nc1noc(-c2cccc(C)c2)n1 | 106
CCOc1ccc(C(=O)Nc2c(N)nc(SCC(=O)N(CC)CC)[nH]c2=O)cc1 | 104

Gathered by group: the compounds so far containing a cyano group.
Structure (SMILES) | host macrophage viability [%]
N#CC1=C(N)OC2=C(C(=O)CCC2)C1c1ccc(-c2ccc(Br)cc2)o1 (stereo not drawn) | 100
CCOc1ccc2cc(C#N)c(SCC(=O)Nc3c[nH]c(=O)[nH]c3=O)nc2c1 | 116

More records follow:

Structure (SMILES) | host macrophage viability [%]
CCOc1ccccc1NC(=O)CSc1nc2cc3c(cc2cc1C#N)OCO3 | 149
Cc1ccc(S(=O)(=O)Nc2ccccc2C(=O)Nc2sc3c(c2C#N)CCC3)cc1 | 136
Cc1ccc(-n2nnc(C(=O)N3CCSCC3)c2-c2ccncc2)cc1C | 114
CC1CN(C)CCC1CCc1ccc(NC(=O)c2n[nH]c3c2CCC3)cc1 (stereo not drawn) | 126
Cc1ccc(-c2noc(-c3cccnc3N(C)Cc3ccccc3)n2)cc1 | 127
COc1ccc(N2CCN(c3ncnc4c3c(C)c(C)n4-c3ccccc3)CC2)cc1 | 110
Cc1ccc(-c2nc3n(CC(=O)N4CCCCC4C)c(C)c(Cc4ccccc4)c(=O)n3n2)cc1 (stereo not drawn) | 122
Cc1cc(SCc2cccc3ccccc23)nc(=O)[nH]1 | 120
N#Cc1cc2cc3c(cc2nc1SCC(=O)N(c1ccccc1)c1ccccc1)OCO3 | 123
COc1ccccc1N1CCN(S(=O)(=O)c2c[nH]c(=O)[nH]c2=O)CC1 | 124
Cn1c(=O)oc2cc(NS(=O)(=O)c3ccc4c(c3)CCC(=O)N4)ccc21 | 113
O=C(Cn1c(=O)c2cccnc2n(-c2ccccc2)c1=O)Nc1ccc(Br)cc1 | 119
Cc1cc(CNC(=O)c2c(-c3ccncc3)noc2C)c2[nH]c(C)c(C)c2c1 | 142
CNS(=O)(=O)c1cc(-c2cc(C(=O)N3CCN(c4ccc(OC)cc4)CC3)n[nH]2)ccc1OC | 98.2
COc1ccc(OC)c(NC(=O)CC2Sc3ccccc3NC2=O)c1 (stereo not drawn) | 120
O=C(NCC1CCCCC1)C1CCCN(C(=O)NCc2ccccc2)C1 (stereo not drawn) | 112
CC1=C(C(=O)Nc2ccccc2F)C(c2ccc(N(C)C)cc2)NC(=O)N1 (stereo not drawn) | 115
CCc1noc2ncnc(N3CCCC(C(=O)NCc4ccccc4F)C3)c12 (stereo not drawn) | 124
Cc1sc2ncnc(NCCC3=CCCCC3)c2c1S(=O)(=O)N1CCCCC1 | 134
Cc1n[nH]c2c1C(c1cccs1)C(C#N)=C(N)O2 (stereo not drawn) | 105
Clc1cc(Cl)c2nc(N3CCCCC3)sc2c1 | 105 ± 6.6
C=CCOC(=O)C1=C(C)Nc2[nH]c(=O)[nH]c(=O)c2C1c1cccc(O)c1 (stereo not drawn) | 121
